The values below come from the supplement of paper PMC10849652.

Sequences of proteins named here, by UniProt entry; tags and fusion partners are left off. A change or cut given only in a name is not applied to a line headed by its entry.
UniProt O60268: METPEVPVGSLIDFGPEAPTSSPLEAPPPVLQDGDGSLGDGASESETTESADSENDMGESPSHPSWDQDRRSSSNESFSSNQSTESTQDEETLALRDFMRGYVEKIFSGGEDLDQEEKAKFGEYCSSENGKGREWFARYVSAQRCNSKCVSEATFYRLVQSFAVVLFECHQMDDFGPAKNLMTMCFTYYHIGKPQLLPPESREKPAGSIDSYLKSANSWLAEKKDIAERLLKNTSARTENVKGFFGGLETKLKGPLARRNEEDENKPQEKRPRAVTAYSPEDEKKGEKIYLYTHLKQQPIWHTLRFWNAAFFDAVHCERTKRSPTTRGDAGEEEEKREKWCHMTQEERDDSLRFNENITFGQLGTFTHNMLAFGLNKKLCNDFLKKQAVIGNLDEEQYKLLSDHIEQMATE
UniProt P05412, whole entry, looked up: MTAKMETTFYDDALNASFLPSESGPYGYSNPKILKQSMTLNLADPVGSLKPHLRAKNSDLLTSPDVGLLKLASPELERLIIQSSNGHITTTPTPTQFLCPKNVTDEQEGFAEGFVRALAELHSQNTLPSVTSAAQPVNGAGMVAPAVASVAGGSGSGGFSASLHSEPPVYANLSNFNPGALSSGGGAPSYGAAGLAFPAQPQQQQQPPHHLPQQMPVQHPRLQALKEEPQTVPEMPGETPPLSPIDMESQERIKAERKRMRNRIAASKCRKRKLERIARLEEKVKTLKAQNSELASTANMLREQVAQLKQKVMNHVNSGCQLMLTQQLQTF
UniProt Q9H910: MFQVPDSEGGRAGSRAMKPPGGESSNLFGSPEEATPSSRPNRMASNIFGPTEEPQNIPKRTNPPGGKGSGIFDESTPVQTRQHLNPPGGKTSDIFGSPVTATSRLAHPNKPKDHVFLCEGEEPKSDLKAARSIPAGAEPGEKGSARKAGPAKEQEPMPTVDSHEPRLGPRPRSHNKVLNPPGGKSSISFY
UniProt Q9BVG8: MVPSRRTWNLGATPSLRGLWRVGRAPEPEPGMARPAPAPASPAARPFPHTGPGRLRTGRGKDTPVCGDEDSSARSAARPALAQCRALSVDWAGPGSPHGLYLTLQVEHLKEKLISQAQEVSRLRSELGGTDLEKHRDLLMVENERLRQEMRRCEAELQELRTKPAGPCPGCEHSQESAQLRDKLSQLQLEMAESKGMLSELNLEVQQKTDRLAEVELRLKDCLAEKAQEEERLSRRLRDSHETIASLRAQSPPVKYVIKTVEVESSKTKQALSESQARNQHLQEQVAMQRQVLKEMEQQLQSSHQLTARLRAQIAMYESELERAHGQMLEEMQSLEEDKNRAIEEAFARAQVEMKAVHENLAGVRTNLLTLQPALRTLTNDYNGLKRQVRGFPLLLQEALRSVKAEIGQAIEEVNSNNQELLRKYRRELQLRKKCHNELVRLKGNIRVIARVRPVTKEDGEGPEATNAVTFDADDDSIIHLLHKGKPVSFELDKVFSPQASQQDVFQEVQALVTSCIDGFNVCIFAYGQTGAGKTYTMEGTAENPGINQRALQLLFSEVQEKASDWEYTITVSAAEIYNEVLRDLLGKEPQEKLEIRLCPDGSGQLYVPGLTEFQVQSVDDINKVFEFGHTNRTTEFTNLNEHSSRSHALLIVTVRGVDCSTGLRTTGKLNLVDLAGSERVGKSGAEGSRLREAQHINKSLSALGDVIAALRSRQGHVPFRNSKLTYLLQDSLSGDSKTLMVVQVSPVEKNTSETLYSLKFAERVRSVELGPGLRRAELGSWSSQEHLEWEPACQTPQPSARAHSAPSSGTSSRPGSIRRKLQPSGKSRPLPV
UniProt Q9P0J7: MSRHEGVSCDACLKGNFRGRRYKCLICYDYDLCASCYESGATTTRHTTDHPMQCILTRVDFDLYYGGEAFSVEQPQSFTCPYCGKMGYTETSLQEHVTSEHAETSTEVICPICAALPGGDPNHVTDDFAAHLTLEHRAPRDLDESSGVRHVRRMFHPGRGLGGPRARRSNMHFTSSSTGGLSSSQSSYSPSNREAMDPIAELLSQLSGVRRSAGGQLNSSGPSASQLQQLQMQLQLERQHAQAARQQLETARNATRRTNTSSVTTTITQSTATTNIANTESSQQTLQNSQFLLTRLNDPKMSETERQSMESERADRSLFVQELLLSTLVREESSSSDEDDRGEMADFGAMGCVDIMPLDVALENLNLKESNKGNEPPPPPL
UniProt Q719H9: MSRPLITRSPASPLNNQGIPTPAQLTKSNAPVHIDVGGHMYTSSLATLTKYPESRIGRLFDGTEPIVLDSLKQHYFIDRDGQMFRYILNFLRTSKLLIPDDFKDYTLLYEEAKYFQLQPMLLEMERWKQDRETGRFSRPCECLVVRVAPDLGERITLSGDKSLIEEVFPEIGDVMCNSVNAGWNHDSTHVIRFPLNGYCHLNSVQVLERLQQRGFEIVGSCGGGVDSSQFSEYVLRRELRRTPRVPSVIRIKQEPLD
UniProt P17275: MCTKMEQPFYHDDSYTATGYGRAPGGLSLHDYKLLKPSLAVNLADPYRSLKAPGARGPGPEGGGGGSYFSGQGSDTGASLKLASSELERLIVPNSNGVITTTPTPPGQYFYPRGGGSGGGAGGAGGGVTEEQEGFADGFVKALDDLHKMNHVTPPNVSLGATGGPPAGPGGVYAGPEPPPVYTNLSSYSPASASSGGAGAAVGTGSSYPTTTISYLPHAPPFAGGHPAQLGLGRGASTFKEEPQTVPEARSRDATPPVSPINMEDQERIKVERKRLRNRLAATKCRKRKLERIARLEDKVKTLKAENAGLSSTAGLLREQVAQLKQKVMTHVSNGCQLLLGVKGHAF
UniProt Q9Y2M5: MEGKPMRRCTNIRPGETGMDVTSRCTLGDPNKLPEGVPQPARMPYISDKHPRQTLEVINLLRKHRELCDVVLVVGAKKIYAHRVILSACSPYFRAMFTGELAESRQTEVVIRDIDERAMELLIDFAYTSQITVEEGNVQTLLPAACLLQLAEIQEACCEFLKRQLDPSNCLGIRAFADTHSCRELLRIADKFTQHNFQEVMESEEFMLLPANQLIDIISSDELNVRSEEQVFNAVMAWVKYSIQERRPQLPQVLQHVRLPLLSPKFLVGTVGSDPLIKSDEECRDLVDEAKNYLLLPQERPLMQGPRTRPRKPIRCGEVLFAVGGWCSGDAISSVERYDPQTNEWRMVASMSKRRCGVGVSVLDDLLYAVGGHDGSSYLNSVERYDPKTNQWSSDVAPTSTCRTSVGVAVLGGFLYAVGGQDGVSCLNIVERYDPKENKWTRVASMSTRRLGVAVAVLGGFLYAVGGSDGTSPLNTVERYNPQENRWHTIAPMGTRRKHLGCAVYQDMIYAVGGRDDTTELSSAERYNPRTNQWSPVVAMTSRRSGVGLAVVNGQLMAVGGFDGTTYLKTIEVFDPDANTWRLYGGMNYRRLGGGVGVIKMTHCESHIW
UniProt Q8WYB5, whole entry, looked up: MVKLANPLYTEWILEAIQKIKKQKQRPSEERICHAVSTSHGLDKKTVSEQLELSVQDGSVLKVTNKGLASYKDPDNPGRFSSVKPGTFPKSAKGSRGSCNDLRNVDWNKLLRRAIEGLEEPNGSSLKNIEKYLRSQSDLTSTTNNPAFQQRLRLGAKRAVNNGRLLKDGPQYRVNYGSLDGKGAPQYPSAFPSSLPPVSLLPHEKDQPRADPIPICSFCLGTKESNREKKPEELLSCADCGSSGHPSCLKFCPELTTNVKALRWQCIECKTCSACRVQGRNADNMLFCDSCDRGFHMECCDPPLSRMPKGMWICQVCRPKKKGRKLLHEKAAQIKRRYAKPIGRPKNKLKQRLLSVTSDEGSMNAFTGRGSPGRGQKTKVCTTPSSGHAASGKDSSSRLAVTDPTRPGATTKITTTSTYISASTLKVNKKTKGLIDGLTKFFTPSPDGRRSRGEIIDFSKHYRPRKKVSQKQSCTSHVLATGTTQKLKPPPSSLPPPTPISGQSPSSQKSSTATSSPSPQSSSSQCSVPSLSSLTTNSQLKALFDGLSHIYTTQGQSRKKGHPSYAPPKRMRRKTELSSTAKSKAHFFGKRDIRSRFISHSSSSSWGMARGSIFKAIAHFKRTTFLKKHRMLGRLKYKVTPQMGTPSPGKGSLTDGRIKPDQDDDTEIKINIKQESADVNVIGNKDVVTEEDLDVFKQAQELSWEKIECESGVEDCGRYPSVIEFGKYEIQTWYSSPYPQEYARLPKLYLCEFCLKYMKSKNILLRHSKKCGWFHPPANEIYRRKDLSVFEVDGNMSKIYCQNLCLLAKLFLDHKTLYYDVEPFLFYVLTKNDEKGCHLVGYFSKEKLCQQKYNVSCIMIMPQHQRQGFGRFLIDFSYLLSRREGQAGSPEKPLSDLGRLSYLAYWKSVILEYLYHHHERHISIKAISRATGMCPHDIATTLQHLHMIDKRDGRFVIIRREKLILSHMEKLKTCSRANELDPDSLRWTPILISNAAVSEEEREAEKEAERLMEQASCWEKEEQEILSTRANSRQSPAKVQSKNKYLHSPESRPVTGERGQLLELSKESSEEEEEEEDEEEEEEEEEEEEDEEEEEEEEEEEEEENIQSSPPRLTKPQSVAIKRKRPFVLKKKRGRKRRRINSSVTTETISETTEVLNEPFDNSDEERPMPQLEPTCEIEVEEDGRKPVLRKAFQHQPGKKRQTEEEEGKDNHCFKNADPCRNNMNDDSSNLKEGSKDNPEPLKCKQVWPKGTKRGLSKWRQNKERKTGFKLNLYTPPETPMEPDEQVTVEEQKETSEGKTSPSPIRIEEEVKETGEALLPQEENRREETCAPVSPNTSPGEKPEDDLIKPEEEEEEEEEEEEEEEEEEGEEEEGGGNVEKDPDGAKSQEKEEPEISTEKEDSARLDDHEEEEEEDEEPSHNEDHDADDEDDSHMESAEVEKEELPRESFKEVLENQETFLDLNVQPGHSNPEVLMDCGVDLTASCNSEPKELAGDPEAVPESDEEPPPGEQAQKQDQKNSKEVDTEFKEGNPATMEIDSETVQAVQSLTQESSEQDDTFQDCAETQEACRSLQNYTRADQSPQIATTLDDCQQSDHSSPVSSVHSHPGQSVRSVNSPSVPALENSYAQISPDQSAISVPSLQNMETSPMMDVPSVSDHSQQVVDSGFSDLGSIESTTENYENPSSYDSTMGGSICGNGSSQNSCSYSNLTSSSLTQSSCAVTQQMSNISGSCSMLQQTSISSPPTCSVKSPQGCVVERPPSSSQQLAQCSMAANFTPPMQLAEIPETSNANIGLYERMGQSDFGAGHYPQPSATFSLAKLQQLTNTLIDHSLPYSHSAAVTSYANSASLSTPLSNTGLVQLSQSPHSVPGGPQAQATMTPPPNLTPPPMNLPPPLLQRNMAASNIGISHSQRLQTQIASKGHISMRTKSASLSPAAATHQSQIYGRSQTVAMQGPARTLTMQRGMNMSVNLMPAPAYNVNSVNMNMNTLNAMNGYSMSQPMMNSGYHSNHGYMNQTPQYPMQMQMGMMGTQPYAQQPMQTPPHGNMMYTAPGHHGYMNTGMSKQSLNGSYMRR
UniProt O43731: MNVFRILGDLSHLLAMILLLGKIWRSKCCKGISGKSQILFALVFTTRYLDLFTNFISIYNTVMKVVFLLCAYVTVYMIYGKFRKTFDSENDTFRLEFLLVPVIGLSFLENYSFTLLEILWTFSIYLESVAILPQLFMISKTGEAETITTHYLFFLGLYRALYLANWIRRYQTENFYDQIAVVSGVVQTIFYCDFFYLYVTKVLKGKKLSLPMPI
UniProt O95251, whole entry, looked up: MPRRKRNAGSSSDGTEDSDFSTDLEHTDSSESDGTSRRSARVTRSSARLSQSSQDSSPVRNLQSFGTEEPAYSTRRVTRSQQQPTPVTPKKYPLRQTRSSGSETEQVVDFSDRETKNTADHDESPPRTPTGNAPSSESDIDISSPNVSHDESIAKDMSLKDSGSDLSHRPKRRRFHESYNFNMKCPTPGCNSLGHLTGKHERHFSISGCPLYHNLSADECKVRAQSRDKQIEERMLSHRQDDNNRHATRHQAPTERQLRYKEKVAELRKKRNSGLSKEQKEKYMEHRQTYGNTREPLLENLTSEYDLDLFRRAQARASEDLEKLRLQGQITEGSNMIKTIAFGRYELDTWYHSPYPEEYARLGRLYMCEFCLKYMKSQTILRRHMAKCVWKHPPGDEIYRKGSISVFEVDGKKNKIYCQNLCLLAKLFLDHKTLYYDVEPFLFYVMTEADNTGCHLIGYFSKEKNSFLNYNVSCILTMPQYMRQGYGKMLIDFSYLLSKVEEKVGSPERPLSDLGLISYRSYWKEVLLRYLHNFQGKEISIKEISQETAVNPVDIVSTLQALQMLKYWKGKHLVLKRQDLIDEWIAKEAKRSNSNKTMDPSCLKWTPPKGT
UniProt O43240: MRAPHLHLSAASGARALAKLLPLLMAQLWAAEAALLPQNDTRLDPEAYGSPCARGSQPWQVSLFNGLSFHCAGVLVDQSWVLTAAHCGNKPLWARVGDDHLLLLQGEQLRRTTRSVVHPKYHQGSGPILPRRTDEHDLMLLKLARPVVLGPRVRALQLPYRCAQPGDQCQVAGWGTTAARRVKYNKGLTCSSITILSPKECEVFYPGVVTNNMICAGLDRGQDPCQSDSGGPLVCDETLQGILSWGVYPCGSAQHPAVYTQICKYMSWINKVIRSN

The list shows a part of the results.

Compound in one assay: CN1CCc2c(c3ccccc3n2Cc2ccc(C(=O)NO)cc2)C1 [Tubastatin A]
Nature of the assay: log2 fold change, soluble protein after heating vs DMSO (PISA); higher = thermal stabilisation; K562 cells, 10 uM, 30 min; active = over 0.2 and 3.5 SD of the protein, either way, in both replicates (recomputed). In short, it runs like this:
(§1)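 Thermal stability values are relative to control samples and come from duplicates. They are expressed as log2 fold changes. For measurement, K562 cells (2×10^6 cells/mL) received 10 μM compound for 30 min, and aliquots were heated for 3 min over 48°C-58°C, pooled, and extracted at 4°C in PBS with 0.5% NP-40. Soluble protein, the supernatant after 21,000xg for 90 min, was quantified by TMTpro 16plex LC-MS/MS with equalised channel sums.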
Consider KLHDC10 (UniProt Q6PID8), for which the log2 fold change was inactive: 0.418.

In the case of KIAA0513 (UniProt O60268), the log2 fold change was inactive: 0.153.

Take JUN (UniProt P05412): the log2 fold change was inactive: -0.119.

For JPT2 isoform 2 (UniProt Q9H910), the log2 fold change is inactive: 0.051.

KLC3 isoform 3 (UniProt Q6P597): the log2 fold change was inactive: -0.132.

With KIFC3 isoform 6 (UniProt Q9BVG8), the log2 fold change was inactive: -0.004.

For KCMF1 (UniProt Q9P0J7), the log2 fold change was inactive: 0.016.

For KCTD1 (UniProt Q719H9), the log2 fold change was inactive: -0.033.

Take JUNB (UniProt P17275): the log2 fold change was inactive: -0.003.

With KLHL20 (UniProt Q9Y2M5), the log2 fold change is inactive: -0.157.

With KAT6B (UniProt Q8WYB5), the log2 fold change is inactive: -0.003.

For the target KDELR3 (UniProt O43731), the log2 fold change is inactive: -0.142.

Compound in the next assay: CNC(=O)C1=CC=CC=C1NC2=NC(=NC=C2Cl)NC3=C(C=C(C=C3)N4CCOCC4)OC
Described as above. Summed up: as §1
As for KIAA1109 (UniProt Q2LD37), the log2 fold change is inactive: 0.02.

On to KIAA0513 (UniProt O60268), for which the log2 fold change is inactive: 0.018.

With JUN (UniProt P05412), the log2 fold change is inactive: -0.125.

As to KIF26A (UniProt Q9ULI4), the log2 fold change is inactive: 0.026.

KALRN (UniProt O60229): the log2 fold change was inactive: -0.039.

Regarding KSR2 (UniProt Q6VAB6), the log2 fold change was inactive: -0.094.

Regarding JPT2 isoform 2 (UniProt Q9H910), the log2 fold change is inactive: -0.056.

In the case of KDM3A (UniProt Q9Y4C1), the log2 fold change is inactive: 0.243.

In the case of KIFC3 isoform 6 (UniProt Q9BVG8), the log2 fold change was inactive: -0.063.

As for KCMF1 (UniProt Q9P0J7), the log2 fold change is inactive: 0.022.

JUNB (UniProt P17275): the log2 fold change is inactive: -0.086.

With KLHL20 (UniProt Q9Y2M5), the log2 fold change is inactive: 0.184.

For the target KIF21A (UniProt H0YI78), the log2 fold change is inactive: -0.012.

In the case of KAT6B (UniProt Q8WYB5), the log2 fold change is inactive: 0.007.

With KAT7 (UniProt O95251), the log2 fold change was inactive: -0.175.

In the case of ITSN2 (UniProt Q9NZM3), the log2 fold change is inactive: -0.041.

As to KIAA0040 (UniProt Q15053), the log2 fold change is inactive: -0.194.

Consider KDELR3 (UniProt O43731), for which the log2 fold change was inactive: 0.084.

Turning to KIF21B (UniProt O75037), the log2 fold change is inactive: -0.328.

Compound in another assay: CNC(=O)c1ccc(Nc2ncc(C(F)(F)F)c(NCc3nccnc3N(C)S(C)(=O)=O)n2)cc1 [defactinib]
Described as above. Summed up: as §1
KIAA0513 (UniProt O60268): the log2 fold change was inactive: -0.062.

On to JPT2 isoform 2 (UniProt Q9H910), for which the log2 fold change was inactive: 0.014.

On to KIFC3 isoform 6 (UniProt Q9BVG8), for which the log2 fold change is inactive: -0.094.

For the target KCMF1 (UniProt Q9P0J7), the log2 fold change was inactive: 0.013.

Turning to KCTD1 (UniProt Q719H9), the log2 fold change was inactive: -0.19.

For the target JUNB (UniProt P17275), the log2 fold change was inactive: -0.137.

As to KDM6A (UniProt O15550), the log2 fold change was inactive: 0.096.

For KLHL20 (UniProt Q9Y2M5), the log2 fold change was inactive: 0.004.

Regarding KAT6B (UniProt Q8WYB5), the log2 fold change is inactive: -0.046.

Consider KAT7 (UniProt O95251), for which the log2 fold change is inactive: -0.081.

For KIAA0040 (UniProt Q15053), the log2 fold change was inactive: -0.034.

Take KIF1B isoform 3 (UniProt O60333): the log2 fold change was inactive: 0.127.

Compound in the next assay: CNCc1ccc(-c2[nH]c3cc(F)cc4c3c2CCNC4=O)cc1 [rucaparib]
Described as above. Summed up:
as §1
With KIAA1109 (UniProt Q2LD37), the log2 fold change was inactive: -0.252.

For KLK10 (UniProt O43240), the log2 fold change is inactive: -0.013.

Take KIFAP3 (UniProt Q92845): the log2 fold change is inactive: -0.27.

In the case of KIF16B isoform 2 (UniProt Q96L93), the log2 fold change was inactive: -0.056.

As for JCHAIN (UniProt P01591), the log2 fold change was inactive: 0.067.

As for JUN (UniProt P05412), the log2 fold change is inactive: 0.056.

As for KIF26A (UniProt Q9ULI4), the log2 fold change is inactive: 0.019.

On to KALRN (UniProt O60229), for which the log2 fold change was inactive: -0.035.

In the case of JPT2 isoform 2 (UniProt Q9H910), the log2 fold change was inactive: 0.126.

Consider KLHL36 (UniProt Q8N4N3), for which the log2 fold change is inactive: -0.279.

Take KDM3A (UniProt Q9Y4C1): the log2 fold change was inactive: 0.088.

Consider KIFC3 isoform 6 (UniProt Q9BVG8), for which the log2 fold change is inactive: -0.099.

With KCMF1 (UniProt Q9P0J7), the log2 fold change was inactive: 0.069.

Regarding JUNB (UniProt P17275), the log2 fold change is inactive: -0.034.

Turning to KIZ (UniProt Q2M2Z5), the log2 fold change was inactive: -0.027.

Consider KAT6B (UniProt Q8WYB5), for which the log2 fold change is inactive: -0.003.

For the target KAT7 (UniProt O95251), the log2 fold change was inactive: 0.112.

With ITSN2 (UniProt Q9NZM3), the log2 fold change is inactive: -0.004.

For the target KIF1B isoform 3 (UniProt O60333), the log2 fold change is inactive: -0.046.

Take KRR1 (UniProt Q13601): the log2 fold change was inactive: -0.104.

Compound in a further assay: CNc1nc(-c2ccc3c(N)n[nH]c3c2)cc(N2C[C@@H](C(=O)NC3CCCCC3)CC[C@H]2C)n1
The assay is described as above. In short, it runs like this:
as §1
Regarding KCTD7 (UniProt Q96MP8), the log2 fold change was inactive: -0.023.

For the target KIF16B isoform 2 (UniProt Q96L93), the log2 fold change is inactive: -0.161.

With KCTD1 (UniProt Q719H9), the log2 fold change is inactive: -0.379.

Regarding KDM6A (UniProt O15550), the log2 fold change is inactive: 0.014.

Consider KLHL20 (UniProt Q9Y2M5), for which the log2 fold change is inactive: -0.054.

As for KDELR3 (UniProt O43731), the log2 fold change is inactive: -0.091.

Regarding KIF21B (UniProt O75037), the log2 fold change was inactive: 0.09.
